According to patent publication US5326751A (Arizona Board of Regents on behalf of the University of …, priority 1992, dated 1994):
Where “and” joins values, the source holds several entries; their conditions need not be identical. Equal values may be shown once. Strings that start with PEPTIDE1 are HELM notation: dots part the residues, brackets hold end groups and non-standard residues.

Experiment: general procedure: Boc solid-phase peptide synthesis; chloromethylated polystyrene (0.6-0.8 mmoles Cl/g resin) cross-linked with 1% divinylbenzene (Peptides International); B
Settings: oxidative folding step; run 1

PEPTIDE1{Y.[D-Pen].A.F.[D-Pen]}$PEPTIDE1,PEPTIDE1,2:R3-5:R3$$$V2.0
final purity (method not given): >99% and >85%
